These are yes or no findings as the source states them, for the method shown. A result given as binding can be weak or reduced; the word gives no strength.
Target: GAL4 DNA-binding domain fusion to Vag2 lacking its signal peptide (BD-Vag2ΔSP) (Sporisorium reilianum)
Assay: two-hybrid; library screen, Matchmaker Gold Yeast Two-Hybrid system: bait BD-Vag2ΔSP in Y2HGold mated with Y187 carrying the AD cDNA library of S. reilianum-colonized maize; growth on SD medium lacking leucine, tryptophan, adenine and histidine and containing 3-AT

B1: Terpene synthase1 (protein, UniProt Q84ZW8 1-590)
chain: MAMPVKLTPASLSLKAVCCRFSSGGHALRFGSSLPCWRRTPTQRSTSSSTTRPAAEVSSGKSKQHDQEASEATIRQQLQLVDVLENMGISRHFAAEIKCILDRTYRSWLQRHEEIMLDTMTCAMAFRILRLNGYNVSSDELYHVVEASGLHNSLGGYLNDTRTLLELHKASTVSISEDESILDSIGSRSRTLLREQLESGGALRKPSLFKEVEHALDGPFYTTLDRLHHRWNIENFNIIEQHMLETPYLSNQHTSRDILALSIRDFSSSQFTYQQELQHLESWVKECRLDQLQFARQKLAYFYLSAAGTMFSPELSDARTLWAKNGVLTTIVDDFFDVAGSKEELENLVMLVEMWDEHHKVEFYSEQVEIIFSSIYDSVNQLGEKASLVQDRSITKHLVEIWLDLLKSMMTEVEWRLSKYVPTEKEYMINASLTFGLGPIVLPALYFVGPKISESIVKDPEYDELFKLMSTCGRLLNDVQTFEREYNEGKLNSVSLLVLHGGSMSISDAKRKLQKPIDTCRRDLLSLVLREESVVPRPCKELFWKMCKVCYFFYSTTDGFSSQVERAKEVDAVINEPLKLQGSHTLVSDV
Q: Which binding does the source give for B1 here?
A: binds

— PMC9146561
